Assay results: PubChem BioAssay AID250 (DTP/NCI, 2004)
The list does not hold the whole screen: it gathers tests that were run many times, whatever their T/C, doses with no T/C, and many T/C values between a quarter and a half above the control. Other doses and runs of a compound stand elsewhere. T/C is the treated group as % of the vehicle group. Some entries give survivors of the animals treated and no T/C: the source files T/C as zero there, which appears to mark a toxic dose or a test without result, not a measured value. Some survivor counts are full or nearly so, which does not show that the dose was tolerated: survival well below the control is almost never listed, so the zero probably covers shortened survival too. Survivors were counted at the toxicity check, usually on the fifth day, unless a day is given; later deaths do not show. Schedules are NCI's codes, taken here to give the interval after Q, in days (D) or hours (H), and the number of doses after X. Some schedule codes hold Z or #, which are not explained here. Some entries were tested several times; the results are listed from low to high.

Test system: BDF1 mice, L1210 leukemia sc, survival T/C
Test: NCI In Vivo Anticancer Drug Screen. Data for tumor model L1210 Leukemia (subcutaneous) in B6D2F1 (BDF1) mice
Conditions: T/C endpoint: median survival time, higher T/C = longer survival
Protocol: The antitumor activity of compounds was measured in mice bearing transplantable tumors. Survival or tumor size were measured and the results are expressed as the measurement made in the treated group (T) divided by the measurement made in the vehicle treated control group (C). The tumor model used in this assay is L1210 Leukemia (subcutaneous) in B6D2F1 (BDF1) mice

[1] = dose: 39.0 mg/kg/injection, schedule: Q01DX Z (sc), vehicle: methylcellulose (MC)
[2] = dose: 300.0 mg/kg/injection, schedule: Q01DX Z (sc), vehicle: methylcellulose (MC)
[3] = dose: 500.0 mg/kg/injection, schedule: Q01DX Z (sc), vehicle: methylcellulose (MC)
[4] = dose: 500.0 mg/kg/injection, schedule: Q01DX Z (sc), vehicle: water
[5] = dose: 180.0 mg/kg/injection, schedule: Q01DX Z (sc), vehicle: water
[6] = dose: 65.0 mg/kg/injection, schedule: Q01DX Z (sc), vehicle: methylcellulose (MC)
[7] = dose: 108.0 mg/kg/injection, schedule: Q01DX Z (sc), vehicle: methylcellulose (MC)
[8] = dose: 180.0 mg/kg/injection, schedule: Q01DX Z (sc), vehicle: methylcellulose (MC)
[9] = dose: 833.0 mg/kg/injection, schedule: Q01DX Z (sc), vehicle: methylcellulose (MC)
[10] = dose: 1.8 mg/kg/injection, schedule: Q01DX Z (sc), vehicle: methylcellulose (MC)
[11] = dose: 3.0 mg/kg/injection, schedule: Q01DX Z (sc), vehicle: methylcellulose (MC)
[12] = dose: 5.0 mg/kg/injection, schedule: Q01DX Z (sc), vehicle: methylcellulose (MC)
[13] = dose: 8.4 mg/kg/injection, schedule: Q01DX Z (sc), vehicle: methylcellulose (MC)
[14] = dose: 14.0 mg/kg/injection, schedule: Q01DX Z (sc), vehicle: methylcellulose (MC)
[15] = dose: 1.08 mg/kg/injection, schedule: Q01DX Z (sc), vehicle: water
[16] = dose: 1.8 mg/kg/injection, schedule: Q01DX Z (sc), vehicle: water
[17] = dose: 5.0 mg/kg/injection, schedule: Q01DX Z (sc), vehicle: water
[18] = dose: 8.4 mg/kg/injection, schedule: Q01DX Z (sc), vehicle: water
[19] = dose: 39.0 mg/kg/injection, schedule: Q01DX Z (sc), vehicle: water
[20] = dose: 65.0 mg/kg/injection, schedule: Q01DX Z (sc), vehicle: water

SMILES: CS(=O)(=O)OCCCCOS(C)(=O)=O
- survivor count [1]: 6 of 10
- survivor count (dose: 100.0 mg/kg/injection, schedule: Q01DX009 (ip), vehicle: Klucel (hydroxypropylcellulose) (HPC)): 6 of 10
- survivor count (dose: 100.0 mg/kg/injection, schedule: Q01DX009 (sc), vehicle: Klucel (hydroxypropylcellulose) (HPC)): 9 of 10
- survivor count (dose: 216.0 mg/kg/injection, schedule: Q01DX Z (sc), vehicle: methylcellulose (MC)): 2 of 10
- survivor count (dose: 360.0 mg/kg/injection, schedule: Q01DX Z (sc), vehicle: methylcellulose (MC)): 0 of 10
- survivor count (dose: 600.0 mg/kg/injection, schedule: Q01DX Z (sc), vehicle: methylcellulose (MC)): 0 of 10

SMILES: CO[C@H](C(=O)[C@@H](O)[C@@H](C)O)[C@@H]1Cc2cc3cc(OC4CC(OC5CC(O)C(O)C(C)O5)C(O)C(C)O4)c(C)c(O)c3c(O)c2C(=O)[C@H]1OC1CC(OC2CC(OC3CC(C)(O)C(O)C(C)O3)C(O)C(C)O2)C(O)C(C)O1 (stereo partly drawn)
- survivor count (dose: 0.5 mg/kg/injection, schedule: Q01DX009 (ip), vehicle: water): 6 of 10
- survivor count (dose: 1.0 mg/kg/injection, schedule: Q01DX009 (sc), vehicle: water): 6 of 10
- survivor count (dose: 2.0 mg/kg/injection, schedule: Q01DX009 (ip), vehicle: water): 0 of 10

SMILES: c1ccc2[nH]cnc2c1
- survivor count (dose: 23.4 mg/kg/injection, schedule: Q01DX Z (sc), vehicle: other): 3 of 10
- survivor count (dose: 39.0 mg/kg/injection, schedule: Q01DX Z (sc), vehicle: other): 3 of 10
- survivor count (dose: 65.0 mg/kg/injection, schedule: Q01DX Z (sc), vehicle: other): 5 of 10
- survivor count (dose: 108.0 mg/kg/injection, schedule: Q01DX Z (sc), vehicle: other): 4 of 10
- survivor count (dose: 180.0 mg/kg/injection, schedule: Q01DX Z (sc), vehicle: other): 4 of 10

SMILES: CCCCNc1ncnc2c1cnn2C
- survivor count [2]: 4 of 10
- survivor count [3]: 0 of 10

SMILES: OCC1OC(n2cnc3cc(Cl)c(Cl)cc32)C(O)C1O (stereo not drawn)
- survivor count (dose: 840.0 mg/kg/injection, schedule: Q01DX Z (sc), vehicle: methylcellulose (MC)): 6 of 10

SMILES: CCN(CC)CCCC(C)Nc1c2ccc(Cl)cc2nc2ccc(OC)cc12 (stereo not drawn)
- survivor count [4]: 1 of 10

SMILES: CN(C)Nc1ncnc2nc[nH]c12
- survivor count [5]: 4 of 10

SMILES: CC1(O)CCC2C3CCC4=C(O)C(=O)CCC4C3CCC21C (stereo not drawn)
- survivor count [1]: 1 of 10
- survivor count [6]: 3 of 10 and 4 of 10
- survivor count [7]: 6 of 10
- survivor count [8]: 0 of 10 and 5 of 10
- survivor count [2]: 2 of 10 and 4 of 10
- survivor count [3]: 2 of 10
- survivor count [9]: 4 of 10

SMILES: CCCCCn1c(C)cc(/C=C\c2ccc3cc(C)ccc3[n+]2C)c1C
- survivor count [10]: 10 of 10
- survivor count [11]: 1 of 10
- survivor count [12]: 2 of 10
- survivor count [13]: 1 of 10
- survivor count [14]: 0 of 10

SMILES: CSc1ncnc2nc[nH]c12
- survivor count [2]: 3 of 10

SMILES: O=C(CCN1CC1)OCCOC(=O)CCN1CC1
- survivor count (dose: 2.8 mg/kg/injection, schedule: Q01DX Z (sc), vehicle: saline): 5 of 10
- survivor count (dose: 36.0 mg/kg/injection, schedule: Q01DX Z (sc), vehicle: saline): 1 of 10
- survivor count (dose: 60.0 mg/kg/injection, schedule: Q01DX Z (sc), vehicle: saline): 0 of 10
- survivor count (dose: 100.0 mg/kg/injection, schedule: Q01DX Z (sc), vehicle: saline): 0 of 10

SMILES: ClCCN(CCCl)CCNc1ccnc2cc(Cl)ccc12
- survivor count (dose: 0.65 mg/kg/injection, schedule: Q01DX Z (sc), vehicle: water): 5 of 10
- survivor count (dose: 1.08 mg/kg/injection, schedule: Q01DX Z (sc), vehicle: methylcellulose (MC)): 3 of 10
- survivor count (dose: 1.08 mg/kg/injection, schedule: Q01DX Z (sc), vehicle: olive oil, sesame oil, peanut oil): 4 of 10
- survivor count [15]: 5 of 10
- survivor count [10]: 6 of 10
- survivor count (dose: 1.8 mg/kg/injection, schedule: Q01DX Z (sc), vehicle: olive oil, sesame oil, peanut oil): 5 of 10
- survivor count [16]: 4 of 10 and 5 of 10
- survivor count [11]: 5 of 10
- survivor count (dose: 3.0 mg/kg/injection, schedule: Q01DX Z (sc), vehicle: olive oil, sesame oil, peanut oil): 5 of 10
- survivor count (dose: 3.0 mg/kg/injection, schedule: Q01DX Z (sc), vehicle: water): 4 of 10
- survivor count [12]: 3 of 10
- survivor count (dose: 5.0 mg/kg/injection, schedule: Q01DX Z (sc), vehicle: olive oil, sesame oil, peanut oil): 4 of 10
- survivor count [17]: 5 of 10 and 6 of 10
- survivor count [13]: 4 of 10
- survivor count (dose: 8.4 mg/kg/injection, schedule: Q01DX Z (sc), vehicle: olive oil, sesame oil, peanut oil): 4 of 10
- survivor count [18]: 4 of 10
- survivor count [14]: 5 of 10
- survivor count (dose: 14.0 mg/kg/injection, schedule: Q01DX Z (sc), vehicle: olive oil, sesame oil, peanut oil): 1 of 10
- survivor count (dose: 14.0 mg/kg/injection, schedule: Q01DX Z (sc), vehicle: water): 3 of 10 and 5 of 10
- survivor count (dose: 23.0 mg/kg/injection, schedule: Q01DX Z (sc), vehicle: methylcellulose (MC)): 3 of 10
- survivor count (dose: 23.0 mg/kg/injection, schedule: Q01DX Z (sc), vehicle: olive oil, sesame oil, peanut oil): 4 of 10
- survivor count (dose: 23.0 mg/kg/injection, schedule: Q01DX Z (sc), vehicle: water): 3 of 10
- survivor count [1]: 2 of 10
- survivor count (dose: 39.0 mg/kg/injection, schedule: Q01DX Z (sc), vehicle: olive oil, sesame oil, peanut oil): 6 of 10
- survivor count [19]: 2 of 10
- survivor count [6]: 0 of 10
- survivor count [20]: 0 of 10

SMILES: C[C@]12C=CC(=O)C=C1CC[C@@H]1[C@@H]2[C@@H](O)C[C@@]2(C)[C@H]1CC[C@]2(O)C(=O)CO
- survivor count [7]: 4 of 10
- survivor count [8]: 4 of 10
- survivor count [2]: 5 of 10
- survivor count [3]: 4 of 10
- survivor count [9]: 5 of 10

SMILES: CC[C@H](c1ccc(O)cc1)[C@@H](CC)c1ccc(O)cc1
- survivor count [8]: 6 of 10
- survivor count [2]: 6 of 10
- survivor count [3]: 5 of 10

SMILES: O=C(NP(=O)(N1CC1)N1CC1)OCc1ccccc1
- survivor count [15]: 6 of 10
- survivor count [16]: 5 of 10
- survivor count [17]: 3 of 10
- survivor count [18]: 6 of 10
- survivor count [19]: 6 of 10
- survivor count [20]: 4 of 10

SMILES: C[n+]1c2cc(N)ccc2cc2ccc(N)cc21
- survivor count [19]: 0 of 8 and 4 of 10
- survivor count [20]: 0 of 10 and 0 of 8
- survivor count (dose: 108.0 mg/kg/injection, schedule: Q01DX Z (sc), vehicle: water): 0 of 10 and 0 of 8
- survivor count [5]: 0 of 10 and 0 of 8
- survivor count (dose: 300.0 mg/kg/injection, schedule: Q01DX Z (sc), vehicle: water): 0 of 10 and 0 of 8
- survivor count [4]: 0 of 10
